Data from the supplement of paper PMC4371806.
Over roughly 1,600 compounds, “plate-normalized OD600 growth (mean of duplicates)” has its median near 0.31; the lowest 2% begin near 0.23. The list shows a part of the results.

System: Escherichia coli BW25113
Assay: plate-normalized OD600 growth (mean of duplicates) (OD600 (normalized)); higher = more growth (less inhibition)
Conditions: 10 µM
Description: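 E. coli BW25113 in LB (100 µl, 96-well, no shaking) was exposed to 10 µM of each compound (here the ChemBridge subset of a ~30,000-member library) and grown at 37°C for 24 h or 15°C for 48 h, in duplicate. Growth was read as OD600 and the duplicate ODs were normalized across screening plates to correct plate-to-plate variation.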

Row | Compound | plate-normalized OD600 growth (temperature: 15°C, 48 h) | plate-normalized OD600 growth (temperature: 37°C, 24 h)
1 | Nc1nc2sc3c(c2cc1C(=O)N1CCOCC1)CCCC3 | 0.253 | 0.625
2 | CC1(C)Cc2c(sc3nc(NN)nc(NN)c23)CO1 | 0.233 | 0.619
3 | N#CC1=C(N)OC2=C(C(=O)CCC2)C1c1ccccc1Cl (centres undefined) | 0.256 | 0.617
4 | c1ccc(CN2CCN(Cc3ccco3)CC2)cc1 | 0.26 | 0.617
5 | COc1ccc(Cl)cc1S(=O)(=O)N1CCN(C)CC1 | 0.269 | 0.633
6 | COc1ccc(OC)c(C(=O)c2coc3ccc(OCC(=O)O)cc23)c1 | 0.261 | 0.645
7 | O=C(Nc1cccc([N+](=O)[O-])c1)c1cccc(S(=O)(=O)N2CCOCC2)c1 | 0.237 | 0.595
8 | COc1ccc(/C=C(\C#N)c2nn(-c3ccccc3)c(N)c2C#N)cc1 | 0.264 | 0.643
9 | Cc1[nH]nc2c1C(c1cc(Cl)cc(Cl)c1O)C(C#N)=C(N)O2 (centres undefined) | 0.258 | 0.622
10 | COc1ccc(OCC(=O)Nc2cc([N+](=O)[O-])ccc2C)cc1 | 0.239 | 0.598
11 | Cc1ccccc1N1CCN(Cc2c[nH]c3ccccc23)CC1 | 0.254 | 0.609
12 | c1ccc(-c2ccc(CN3CCN(c4ncccn4)CC3)cc2)cc1 | 0.245 | 0.608
13 | N#Cc1ccccc1NC(=O)c1ccc([N+](=O)[O-])cc1 | 0.247 | 0.601
14 | COc1ccccc1C1CC(=O)N(C)C2=C1C(=O)CC(C)(C)C2 (centres undefined) | 0.265 | 0.631
15 | O=c1c2c(nc3n1CCS3)-c1ccccc1CC21CCCCC1 | 0.277 | 0.639
16 | COc1ccc(C(=O)Nc2ccc(C(C)C)cc2)cc1OC | 0.247 | 0.611
17 | CCCN1CCC(N(CC)Cc2ccccc2)CC1 | 0.271 | 0.667
18 | O=C(O)CCC(=O)Nc1ccc(S(=O)(=O)c2ccc(NC(=O)CCC(=O)O)cc2)cc1 | 0.281 | 0.628
19 | COc1ccc(NC(=O)c2ccc(-c3ccccc3)cc2)c([N+](=O)[O-])c1 | 0.238 | 0.608
20 | CCN(Cc1ccccc1)Cc1ccco1 | 0.259 | 0.64
21 | CCCOc1ccc(CSC2=NCCN2)cc1[N+](=O)[O-] | 0.261 | 0.623
22 | C=CCn1c2ccccc2n2c(C(=O)CC)c(-c3ccc(OC)cc3)nc12 | 0.256 | 0.63

Row | Compound | plate-normalized OD600 growth (temperature: 15°C, 48 h) | plate-normalized OD600 growth (temperature: 37°C, 24 h)
23 | CCCN(CCO)Cc1ccccc1F | 0.235 | 0.589
24 | CN(C)CC[S+]([O-])c1ccccc1 (centres undefined) | 0.268 | 0.636
25 | CC(=O)Nc1cccc(NS(=O)(=O)c2cc(Cl)ccc2Cl)c1 | 0.236 | 0.638
26 | N#CC1=C(N)SC(N)=C(C#N)C1C1CCCCC1 | 0.249 | 0.65
27 | O=C(O)CCCNC(=O)c1ccccn1 | 0.25 | 0.612
28 | Cc1onc(-c2ccccc2Cl)c1C(=O)Nc1nnc(Cc2ccc(Cl)cc2)s1 | 0.241 | 0.608
29 | O=C(CCN1C(=O)c2ccccc2C1=O)Nc1ccc(Cl)cc1 | 0.257 | 0.633
30 | CC1CC(=O)C2=C(C1)OC(N)=C(C#N)C2c1ccoc1 (centres undefined) | 0.249 | 0.613
31 | C(=C\c1ccccc1)/CN1CCN(C2C3CC4CC(C3)CC2C4)CC1 (centres undefined) | 0.256 | 0.593
32 | c1cc2cn[nH]c2cc1NC1CCCCCC1 | 0.233 | 0.604
33 | Cc1nc([N+](=O)[O-])c(N2CCN(C)CC2)n1Cc1ccccc1 | 0.254 | 0.625
34 | C/C=C(\C)CN1CCN(CCOCCO)CC1 | 0.269 | 0.664
35 | O=S1(=O)C=CC(N2CCCCC2)C1 (centres undefined) | 0.243 | 0.597
36 | CCCCOC(=O)Nc1nnc(CCc2ccccc2)s1 | 0.265 | 0.623
37 | CC(C)(C)NCCOc1cccc(Cl)c1Cl | 0.252 | 0.608
38 | Cc1ccc(NC(=O)c2cccnc2)c([N+](=O)[O-])c1 | 0.262 | 0.606
39 | Cc1n[nH]c(=O)c2cc3c(C)n[nH]c(=O)c3cc12 | 0.259 | 0.622
40 | Cc1cc(C)nc(N2CC(=O)N(C)C2=N)n1 | 0.246 | 0.608
41 | Clc1ccccc1C1NCCc2c1[nH]c1ccccc21 (centres undefined) | 0.278 | 0.631
42 | CCCN1CCC(N(C)CCN(C)C)CC1 | 0.249 | 0.621
43 | Cc1ccccc1OCCCCN1CCCCC1 | 0.265 | 0.623
44 | O=C(Nc1nnc(-c2ccccc2)s1)C1CCCCC1 | 0.25 | 0.606

4 compounds picked at random from those above, as already listed:
Row | Compound | plate-normalized OD600 growth (temperature: 15°C, 48 h) | plate-normalized OD600 growth (temperature: 37°C, 24 h)
13 | N#Cc1ccccc1NC(=O)c1ccc([N+](=O)[O-])cc1 | 0.247 | 0.601
10 | COc1ccc(OCC(=O)Nc2cc([N+](=O)[O-])ccc2C)cc1 | 0.239 | 0.598
21 | CCCOc1ccc(CSC2=NCCN2)cc1[N+](=O)[O-] | 0.261 | 0.623
6 | COc1ccc(OC)c(C(=O)c2coc3ccc(OCC(=O)O)cc23)c1 | 0.261 | 0.645

(further entries)

Row | Compound | plate-normalized OD600 growth (temperature: 15°C, 48 h) | plate-normalized OD600 growth (temperature: 37°C, 24 h)
45 | Cc1ccccc1-c1nnc(-c2ccco2)o1 | 0.248 | 0.607
46 | Cc1cccc(N2C(=O)CC(N3CCN(c4ccccn4)CC3)C2=O)c1 (centres undefined) | 0.248 | 0.645
47 | CC(O)(C#CCN1CCCC1)c1ccccc1 (centres undefined) | 0.267 | 0.622
48 | CC=CC=CC(=O)Nc1c[nH]c(=O)[nH]c1=O | 0.23 | 0.648
49 | COc1cc2c(cc1OC)C(c1cc3c(cc1[N+](=O)[O-])OCO3)N(C(C)=O)CC2 (centres undefined) | 0.242 | 0.618
50 | CCN(CC)C(=O)C1CCCN(Cc2cc(Br)c(OC)cc2OC)C1 (centres undefined) | 0.259 | 0.691
51 | O=C(NC1CCCCC1)c1cccc(S(=O)(=O)N2CCCCC2)c1 | 0.251 | 0.607
52 | C(CNC1C2CC3CC(C2)CC1C3)CN1CCOCC1 (centres undefined) | 0.269 | 0.614
53 | CC(C)Oc1ccc(CNC2CCOC(C)(C)C2)cc1 (centres undefined) | 0.258 | 0.629
54 | c1cc(Nc2ncnc3sc4c(c23)CCC4)ccn1 | 0.256 | 0.623
55 | CC(=O)NC(CO)C(=O)c1ccc([N+](=O)[O-])cc1 (centres undefined) | 0.248 | 0.624
56 | CC(=O)c1cc2c(cc1NC(=O)c1ccc(Cl)cc1)OCCO2 | 0.251 | 0.638
57 | N#CC(=Cc1cccc(F)c1)c1nc(-c2ccc3c(c2)OCO3)cs1 | 0.267 | 0.618
58 | CCN(CC)C(=O)C1CCCN(Cc2ccccc2OC)C1 (centres undefined) | 0.257 | 0.654
59 | CC(=O)c1ccc(OCCOc2ccc([N+](=O)[O-])cc2)cc1 | 0.24 | 0.59
60 | CCn1c2ccccc2c2cc(CN(C)C3CCN(C)CC3)ccc21 | 0.243 | 0.616
61 | COc1cc(OC)c(CNc2ccc3cn[nH]c3c2)cc1Br | 0.244 | 0.614
62 | COc1cccc(C(=O)Nc2cc(Cl)ccc2C)c1 | 0.242 | 0.598
63 | COc1cc(CNC23CC4CC(CC(C4)C2)C3)cc2c1OCO2 | 0.263 | 0.642
64 | O=C(NCC1COc2ccccc2O1)c1cccc([N+](=O)[O-])c1 (centres undefined) | 0.25 | 0.601
65 | Cc1ccc(S(=O)(=O)CCSc2cccc(C(=O)Nc3ccccc3)c2)cc1 | 0.243 | 0.633
66 | COc1ccc2[nH]cc(CCNC(=O)c3ccc([N+](=O)[O-])cc3)c2c1 | 0.266 | 0.643

Row | Compound | plate-normalized OD600 growth (temperature: 15°C, 48 h) | plate-normalized OD600 growth (temperature: 37°C, 24 h)
67 | N#Cc1c2n(c3c(=O)n(Cc4ccc(Cl)cc4)cnc13)CCCCC2 | 0.233 | 0.604
68 | CCOc1ccc(NC(=O)CC2Nc3ccccc3NC2=O)cc1 (centres undefined) | 0.273 | 0.648
69 | OCCN(Cc1ccccc1)Cc1cccc(F)c1 | 0.248 | 0.596
70 | CS(=O)(=O)N1CCN(c2ccc([N+](=O)[O-])c(N3CCCCC3)c2)CC1 | 0.276 | 0.632
71 | COc1ccc(-c2cn3ccccc3n2)cc1F | 0.229 | 0.633
72 | CC1(C)CC(=O)C=C(Nc2ccc(F)c(F)c2)C1 | 0.247 | 0.617
73 | CCn1c2ccccc2c2cc(C3C(C#N)=C(N)OC4=C3C(=O)CCC4)ccc21 (centres undefined) | 0.24 | 0.599
74 | CC(=C1C(=O)c2ccccc2C1=O)N1CCN(c2ccc([N+](=O)[O-])cc2)CC1 | 0.279 | 0.636
75 | Cc1nc2ccccc2n1S(=O)(=O)c1ccc(Cl)cc1 | 0.25 | 0.661
76 | Clc1ccc(CN2CCN(c3ccccn3)CC2)cc1 | 0.233 | 0.655
77 | CC(=O)Nc1ccc2oc(-c3cccc(I)c3)nc2c1 | 0.235 | 0.614
78 | CN(C)c1ccc(CN2CCc3c([nH]c4ccccc34)C2)cc1 | 0.275 | 0.622
79 | N#CC1=C(N)Oc2cc(N)ccc2C1c1cc(Br)cs1 (centres undefined) | 0.27 | 0.631
80 | Cc1c(-c2ccccc2)nc2c3ccccc3ccn12 | 0.244 | 0.611
81 | Cc1onc(-c2ccccc2Cl)c1C(=O)O | 0.285 | 0.639
82 | Cc1cccc(C(=O)Nc2ccc3c(c2)OCO3)c1 | 0.25 | 0.625
83 | COc1cnn(C2CCCCC2)c(=O)c1Cl | 0.253 | 0.613
84 | O=[N+]([O-])c1cccc(C(=NCc2ccccc2)NO)c1 | 0.273 | 0.643
85 | Cc1cc(Cl)c(C(=O)NC(C)C2CC2)cc1Cl (centres undefined) | 0.252 | 0.614
86 | CN(C)CCN(C)Cc1ccc2c(c1)Cc1ccccc1-2 | 0.256 | 0.631
87 | c1ccc2oc(CCCCc3nc4ccccc4o3)nc2c1 | 0.256 | 0.614
88 | Cc1cc(C)c(C2C(C#N)=C(N)OC3=C2C(=O)CC(C)(C)C3)c(C)c1 (centres undefined) | 0.244 | 0.594

Row | Compound | plate-normalized OD600 growth (temperature: 15°C, 48 h) | plate-normalized OD600 growth (temperature: 37°C, 24 h)
89 | NC(=O)NC(=O)Nc1ccc(Cl)cc1 | 0.253 | 0.615
90 | O=C(O)CSc1ccc(Br)cc1 | 0.222 | 0.609
91 | COc1ccc(Nc2nc(-c3ccc(F)cc3F)cs2)cc1 | 0.251 | 0.633
92 | O=C(O)c1cccc(S(=O)(=O)N2CCCC2)c1 | 0.242 | 0.646
93 | Cc1c(C(=O)NC2CCCC2)cccc1[N+](=O)[O-] | 0.252 | 0.636
94 | COc1cc2c(cc1OC)CC1(CCCCC1)N=C2 | 0.238 | 0.625
95 | N#CC(=Cc1cccc(Br)c1)c1nc2ccccc2[nH]1 | 0.262 | 0.653
96 | Cc1ccc2c(c1)c1c(n2C)C(O)CCC1 (centres undefined) | 0.256 | 0.628
97 | CC(c1ccccc1)C1CC(=O)N(c2ccc(I)cc2)C1=O (centres undefined) | 0.246 | 0.634
98 | Cc1cccc(NC(=O)C(O)c2ccccc2)c1 (centres undefined) | 0.249 | 0.614
99 | N#Cc1ccc(-c2cccs2)[nH]c1=O | 0.236 | 0.644
100 | COc1ccc(-c2csc(/C(C#N)=C\c3cccnc3)n2)cc1 | 0.244 | 0.645
101 | CCCS(CCC)=C(C(N)=O)[N+](=O)[O-] | 0.28 | 0.622
102 | O=[N+]([O-])c1cc(F)c(N2CCOCC2)cc1N1CCCCC1 | 0.239 | 0.613
103 | O=C(Nc1ccc(Cl)cc1Cl)C1CCCO1 (centres undefined) | 0.234 | 0.605
104 | Cc1cc(C)n(C(=O)c2ccccc2F)n1 | 0.251 | 0.635
105 | COc1ccc(S(=O)(=O)N2CCCC2)cc1 | 0.219 | 0.612
106 | CSc1nc(C)c(C(C)=O)cc1C#N | 0.244 | 0.621
107 | N#Cc1c(N)nc2c(c1-c1ccccc1)CCCCC2 | 0.243 | 0.602
